The exact form of at least one protein or probe is not confirmed.
Biological target: hBRM-A BRD (human) (UniProt P51531)
Assay: NMR titration
Settings: column assigned from text; FA and NMR: 50 mM K phosphate pH 7.0, 50 mM KCl, 0.5 mM EDTA, 1 mM DTT (NMR +10% D2O), 20 C (BRG1 NMR 25 C); recombinant protein; residues 1379-1508

Amino acid sequences for entries named in this document (tags omitted). Residues count along the entry.
UniProt P51531, 1379-1508: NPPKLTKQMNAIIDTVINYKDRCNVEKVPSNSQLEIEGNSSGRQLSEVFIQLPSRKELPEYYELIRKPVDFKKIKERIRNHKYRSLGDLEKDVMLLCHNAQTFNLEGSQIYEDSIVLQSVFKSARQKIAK

Q: CGTAGACAGCT (double strand) [DNAII] was tested. Which Kd did it give?
A: 270 µM

Q: For CTCAATTGGT (double strand) [DNAI], which Kd is on record?
A: 230 µM
